According to paper PMC5227094:
Like-named read-outs stand apart in the source and are kept apart here. Results are given in words; binding and its absence hold for the method and conditions named. In cells and extracts the contact can be indirect. A yes stands for co-enrichment or nearness to the bait. Other partners may have been found. Each block holds one molecule with its values, some of them ahead of it.

Columns and labels:
[1] = biological target: TAP-tagged GluN1 (Glun1^TAP/TAP knock-in) (mouse) (UniProt P35438); assay: affinity purification with mass spectrometry; TAP-GluN1 captured from Glun1^TAP/TAP forebrain deoxycholate extract on Flag antibody-protein G magnetic beads, eluted with Flag peptide, separated by BNP, ∼1.5 MDa and ∼0.8 MDa bands excised, LC-MS/MS; WT mice as control
[2] = biological target: TAP-tagged GluN1 (Glun1^TAP/TAP knock-in) (mouse) (UniProt P35438); assay: as above; remark: listed apart in the source

binding [1]: binds
Molecule: Iqsec2 (from UniProt Q5DU25 1-1478)

binding [2]: binds
B1: Arc (protein, UniProt Q9WV31 1-396)
chain: MELDHMTTGGLHAYPAPRGGPAAKPNVILQIGKCRAEMLEHVRRTHRHLLTEVSKQVERELKGLHRSVGKLENNLDGYVPTGDSQRWKKSIKACLCRCQETIANLERWVKREMHVWREVFYRLERWADRLESMGGKYPVGSEPARHTVSVGVGGPEPYCQEADGYDYTVSPYAITPPPAAGELPEQESVEAQQYQSWGPGEDGQPSPGVDTQIFEDPREFLSHLEEYLRQVGGSEEYWLSQIQNHMNGPAKKWWEFKQGSVKNWVEFKKEFLQYSEGTLSREAIQRELELPQKQGEPLDQFLWRKRDLYQTLYVDAEEEEIIQYVVGTLQPKLKRFLRHPLPKTLEQLIQRGMEVQDGLEQAAEPSGTPLPTEDETEALTPALTSESVASDRTQPE

binding [2]: binds
B2: Kir2.3 (protein, UniProt P52189 1-445)
chain: MHGHNRNGQAHVPRRKRRNRFVKKNGQCNVYFANLSNKSQRYMADIFTTCVDTRWRYMLMIFSAAFLVSWLFFGLLFWWIAFFHGDLEASPSVPAVGGPGGNGGESPNAPKPCIMHVNGFLGAFLFSVETQTTIGYGFRCVTEECPLAVIAVVVQSIVGCVIDSFMIGTIMAKMARPKKRAQTLLFSHHAVISVRDGKLCLMWRVGNLRKSHIVEAHVRAQLIKPYMTQEGEYLPLDQRDLNVGYDIGLDRIFLVSPIIIVHEIDEDSPLYGMGKEELESEDFEIVVILEGMVEATAMTTQARSSYLASEILWGHRFEPVVFEEKSHYKVDYSRFHKTYEVAGTPCCSARELQESKITVLPAPPPPPSAFCYENELALMSQEEEEMEEEAAAAAAVAAGLGLEAGSKEEAGIIRMLEFGSHLDLERMQAATLPLDNISYRRESRI
